In the supplement of paper PMC5949888:
Most values lie at the floor of the assay. Slopes are relative: functional sequences can read slightly below zero.

Test system: Saccharomyces cerevisiae PS128 hsf1 delta, HSF1(1-493) fusion
Assay: growth estimate (transactivation domain function in HSF1 fusion, heat-shock survival) (a.u. (slope of normalised read count over time)); higher = stronger growth at 37°C, i.e. more transactivation activity
Settings: library: random library

| Substance | growth estimate |
| --- | --- |
| LGNRFAIWVDRVKTMRQVHL | < -0.25 |
| LGNRLAIINWSGAR | < -0.25 |
| LGNSLFGYYQVRGPMVQVIV | < -0.25 |
| LGNTKQSVLGHASHGCYWHN | < -0.25 |
| LGP | < -0.25 |
| LGPDGPE | < -0.25 |
| LGPKNDRLEISLLPPSYLST | < -0.25 |
| LGPLFGGDG | < -0.25 |
| LGPLRGESTRE | < -0.25 |
| LGPNPIDEVGVRWP | < -0.25 |
| LGPRLWAYVQGLPWVGHDGT | < -0.25 |
| LGPSPHDV | < -0.25 |
| LGQIIWYGCSHRARIFSRQR | < -0.25 |
| LGQRFERSGLSEGAVKM | < -0.25 |
| LGQVHSGWASDRIRSHQWRL | < -0.25 |
| LGRAEDHIEKFNAP | < -0.25 |
| LGRALQRNVMRQVSEDTDYR | -0.245 |
| LGRFASSRPSSADDGVLRHR | < -0.25 |
| LGRLISLSQSVLRRVHL | < -0.25 |
| LGRLTGFRSTTNLGLGQSQY | < -0.25 |
| LGRMPDRAGPTIEPDRDPRV | < -0.25 |
| LGRNSIW | 0.058 |
| LGRQYKSRGNAWRSHLGKQK | < -0.25 |
| LGRRCCSFGCPSTLRGGGRS | < -0.25 |
| LGRRMI | < -0.25 |

| Substance | growth estimate |
| --- | --- |
| LGRSRQI | < -0.25 |
| LGRVRTRAMP | < -0.25 |
| LGSC | < -0.25 |
| LGSEVRSITTSMPDARYTLG | < -0.25 |
| LGSGYFLTPGCTALVARYRG | < -0.25 |
| LGSRFRV | < -0.25 |
| LGSSNIR | < -0.25 |
| LGT | < -0.25 |
| LGTCFAANWELRRYVLR | < -0.25 |
| LGTDLKR | < -0.25 |
| LGTETRTLERMVVAC | < -0.25 |
| LGTGCLTGKEASKGYASRLA | -0.246 |
| LGTHTRQGLLRTG | < -0.25 |
| LGTLQLTPSTSPCLSCDKMS | < -0.25 |
| LGTLWIRLLQFGDLG | < -0.25 |
| LGTVHEIDV | < -0.25 |
| LGTVMREFSMQLLCWQLRVP | < -0.25 |
| LGVCRTGAGDPQCVRASTCA | < -0.25 |
| LGVEAASSEGN | < -0.25 |
| LGVFKLQRGHTHPRLAASNC | < -0.25 |
| LGVHSQVGCERYLPGTRGLI | < -0.25 |
| LGVKRR | < -0.25 |
| LGVLLEDSIRDLIPC | < -0.25 |
| LGVLRRDVIGNLRSPNKHYY | < -0.25 |
| LGVLTLSTPIFGFPNTKLQG | < -0.25 |

| Substance | growth estimate |
| --- | --- |
| LGVRLVSAGARQMDFALGHT | < -0.25 |
| LGVSSSRLHTNHMDPPKKPR | < -0.25 |
| LGVV | < -0.25 |
| LGVVIKTSDGKFPGYQRFAS | < -0.25 |
| LGW | < -0.25 |
| LGWGYTMYSHVCWPVERNRP | < -0.25 |
| LGYALIGLPRS | < -0.25 |
| LGYGLHGSYSLRENIWAHAC | < -0.25 |
| LGYQEFSGPILARNLEGK | < -0.25 |
| LGYQKVCMRLELNG | < -0.25 |
| LGYWSGASPGSRRGGWERSA | < -0.25 |
| LHARLCQAGEVNVCLFIKSY | < -0.25 |
| LHARVGAASVGRSGEDQWTL | < -0.25 |
| LHFASRKWAFKYWGFDEANN | < -0.25 |
| LHFDSQGNQYHFPLVYGPVC | -0.246 |
| LHGILVLQVTEP | < -0.25 |
| LHGMRMRV | < -0.25 |
| LHHYRS | < -0.25 |
| LHKDWVRISQGWSGVDKLRG | < -0.25 |
| LHKIKDSTFVS | < -0.25 |
| LHLAVVTKLSKNSPIGAR | < -0.25 |
| LHLQTVSDEVLRRRPRVTVY | < -0.25 |
| LHLSEEALRLAVRV | < -0.25 |
| LHNTGV | < -0.25 |
| LHPGQSVLSAGDLYECFFTS | < -0.25 |

| Substance | growth estimate |
| --- | --- |
| LHPGSTPSVNEITSSRIEPG | < -0.25 |
| LHPSKQTEQLRIQPSGLNQS | < -0.25 |
| LHQRYSGSGAHLVSPGLRGR | < -0.25 |
| LHRCR | < -0.25 |
| LHRFRGRTVLVGWGGIRHLG | < -0.25 |
| LHRKGMMMRQS | < -0.25 |
| LHRTNLWYDPYSPVQGYYLH | < -0.25 |
| LHSGGYEGLL | < -0.25 |
| LHSLPARCIT | < -0.25 |
| LHSPSPLHLH | < -0.25 |
| LHSRHPRHSTI | < -0.25 |
| LHSSGPGHLALITYKIVFCR | < -0.25 |
| LHVRSGDASLGGSG | < -0.25 |
| LHWATAVRTGETVNCGYGTE | < -0.25 |
| LHWWSILVPRFAVSWCPQSF | < -0.25 |
| LHYGCIVGEN | < -0.25 |
| LIATDNLFGVCFLTD | < -0.25 |
| LIAVWLL | < -0.25 |
| LICTLRIVYQCRKSGNDRSV | < -0.25 |
| LICYG | < -0.25 |
| LIDRKALRTCR | < -0.25 |
| LIEQYTRQIPPGNGSRAQRV | < -0.25 |
| LIFTYFCSGRSALKSFQPRA | < -0.25 |
| LIGGWTL | < -0.25 |
| LIGI | < -0.25 |

| Substance | growth estimate |
| --- | --- |
| LIGRWEKWGHGNTVKLITTY | < -0.25 |
| LIHGAGARINERRWGFCVKV | < -0.25 |
| LIKRREVLKWCSPSRLACAQ | < -0.25 |
| LIKSLVSTTRIAFSVDISVA | < -0.25 |
| LILFPR | < -0.25 |
| LILPIAIQVSQSVGFWILPE | < -0.25 |
| LILTPRTIIADRIV | < -0.25 |
| LILTTCARGAWRTAPKS | < -0.25 |
| LIMSRPGNPIQLCPTSKRK | < -0.25 |
| LIPDVSDLRIANRYHIPPSC | < -0.25 |
| LIPGLVALSLPGPGTSVSLS | < -0.25 |
| LIRIL | < -0.25 |
| LIRVRTKMRICDLHWEGLAS | < -0.25 |
| LITADLALICVMCLLVGREG | < -0.25 |
| LITFEGPKAG | < -0.25 |
| LITSSAVVLRTYLVTRYQPP | < -0.25 |
| LIVDRHHRLTVDDVIREPWM | < -0.25 |
| LIWARDQPVRNHFEPVHHEE | < -0.25 |
| LIWNSN | < -0.25 |
| LKAEAERCCKIPAAFCQEAG | < -0.25 |
| LKAGSVTAIAHGGQCGSKQR | < -0.25 |
| LKAHPWADLCVDRAPFCHII | < -0.25 |
| LKAKDLSICGCTSPRMSVGS | < -0.25 |
| LKARAWSTRLDIRVWRLWTA | < -0.25 |
| LKAWLSVHSGRVDPYGLAYC | < -0.25 |

| Substance | growth estimate |
| --- | --- |
| LKDPEPLGNERHTGRMRRPT | < -0.25 |
| LKEIDLFNMPPVSAGYFEWA | < -0.25 |
| LKELRWLGRYIAGCVHS | < -0.25 |
| LKELTGRWGDGAVFAEFVQH | < -0.25 |
| LKF | < -0.25 |
| LKGPSTCRRPHWVAFCCTVD | < -0.25 |
| LKGPYIGWPSKSLRSLIVRK | < -0.25 |
| LKGTRS | < -0.25 |
| LKGVKPAATMSGSLQL | < -0.25 |
| LKHES | < -0.25 |
| LKHRL | < -0.25 |
| LKIARLGVTRQSRHILAF | < -0.25 |
| LKIRR | < -0.25 |
| LKIYLSQEDLRGVAFGSSWF | -0.0317 |
| LKPTAATNGPNMLRITVKRW | < -0.25 |
| LKRDNAPVYRGHRCETGIGP | < -0.25 |
| LKRGLQLPGQLSWNDKQRWP | < -0.25 |
| LKRLSC | < -0.25 |
| LKRLTLRRRAALWMHESGHV | < -0.25 |
| LKRQ | < -0.25 |
| LKSLIVKRRQFNPSRADRPV | < -0.25 |
| LKVALAGLGFAAWIQSDCEH | < -0.25 |
| LKVDWL | < -0.25 |
| LKVES | < -0.25 |
| LKVLVYDRDRTSPHHGY | < -0.25 |

| Substance | growth estimate |
| --- | --- |
| LKVPCRERSRSLTVSVCRLN | < -0.25 |
| LKYVSDEVKAAFATGTDYP | < -0.25 |
| LLA | < -0.25 |
| LLAYDFVSGHTLELDLSYAA | -0.213 |
| LLAYPDRLEGWYYHRGHHTG | < -0.25 |
| LLDLFSWAAGIHLKSR | < -0.25 |
| LLEIRCATRDRSVAGQLRAC | < -0.25 |
| LLFDKRRLSMVLVPTP | < -0.25 |
| LLFNIARRTYRSFWRSELRQ | < -0.25 |
| LLFRTTIQKLRISNIQVTCR | < -0.25 |
| LLFTT | < -0.25 |
| LLGCFV | < -0.25 |
| LLGDRCNTPGVVCGNRGLHA | < -0.25 |
| LLGEPVETPRWWRSS | < -0.25 |
| LLGKAYSQENGEASVIADRA | < -0.25 |
| LLGPLLNNVTGSCVSTRHG | < -0.25 |
| LLGS | < -0.25 |
| LLGTAFEAV | < -0.25 |
| LLGYGVGATMGIHSCP | < -0.25 |
| LLHKPIFRLQCHTIEGMVAR | < -0.25 |
| LLHPSFV | < -0.25 |
| LLHTL | < -0.25 |
| LLIGVFV | < -0.25 |
| LLIPFIGLTVSSAVRYLKYR | -0.248 |
| LLISCRF | < -0.25 |

| Substance | growth estimate |
| --- | --- |
| LLITDDLRSSTGLICPAVLV | < -0.25 |
| LLIVHCETKIKKGCSWSRWT | < -0.25 |
| LLIVSCWDAAMYLEIAITCR | -0.25 |
| LLKGEGKPAKNRYISFVIPV | < -0.25 |
| LLKLK | < -0.25 |
| LLKLRNLETRPCMGPDRAME | < -0.25 |
| LLLAIG | < -0.25 |
| LLLARRAERSTCIRQIAPAN | < -0.25 |
| LLLEMRSSTLPS | < -0.25 |
| LLLHLWRCDRREPRHPISHT | < -0.25 |
| LLLIESDRAKASEGRAAPPA | < -0.25 |
| LLLITSGPHPSICACTMRLL | < -0.25 |
| LLLM | < -0.25 |
| LLLRI | < -0.25 |
| LLLRSLKSKIRPYKGGRFHP | < -0.25 |
| LLLSTTARSILGIPLIVWAA | < -0.25 |
| LLLTVAHPPRSVSAFNAKTQ | < -0.25 |
| LLNLGKVTH | < -0.25 |
| LLNRQASVRRQDASCGRI | < -0.25 |
| LLPGGT | < -0.25 |
| LLPLG | < -0.25 |
| LLPRRCVYPRYFNWASASKH | < -0.25 |

No new results follow: an excerpt of the list.

| Substance | growth estimate |
| --- | --- |
| LGP | < -0.25 |
| LGPDGPE | < -0.25 |
| LGPKNDRLEISLLPPSYLST | < -0.25 |
| LGPLFGGDG | < -0.25 |
| LGPLRGESTRE | < -0.25 |
| LGPNPIDEVGVRWP | < -0.25 |
